Experimental data: PubChem BioAssay AID1508597 (Cure First, 2020)

- Purpose: 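Knock-downs altering ovarian cancer cell survival with or without PARP inhibitor rucaparib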 (primary screen)
- System: human ovarian carcinoma lines grown from tumours: OCI-P5x (papillary serous) and OCI-C5x (clear cell)
- Reagent: siRNA pool against human genes, 1.25 pmol siRNA per well
- Duration: 72 h or 96 h, depending on the cell culture
- Treatment: rucaparib 20 µM (about IC30) or vehicle, present until read-out
- Rucaparib or vehicle: Vehicle
- Cell line: OCI-C5x (clear cell)
- Measurement: 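ATP luminescence measured at 72 or 96 h according to the culture, then normalised and expressed as percent viability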
- Direction: viability, normalised: higher = more viable cells remaining
- Rule for the call: 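Active when normalised viability falls below 80 percent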
- Calls: active = viability under 80%; inactive = viability 80% or more
Shown is a random part of the about 2,100 reagents, in one setting of the screen. 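Calls flag viability under 80% in either arm, not effects specific to rucaparib; the reference for percent is not stated.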 Some reagents were tested in more than one well and are listed for each. Not given: the 100% reference.

The opening 4 records, ahead of the listing:
no.	gene	technical replicate	viability, normalised (%)	call
1	EEF2K (eukaryotic elongation factor 2 kinase)	1	63.4	active
2	EEF2K (eukaryotic elongation factor 2 kinase)	2	51.2	active
3	EEF2K (eukaryotic elongation factor 2 kinase)	3	63.5	active
4	TP73 (tumor protein p73)	1	29.3	active

Main list, from the first entry:
no.	gene	technical replicate	viability, normalised (%)	call
1	EEF2K (eukaryotic elongation factor 2 kinase)	1	63.4	active
2	EEF2K (eukaryotic elongation factor 2 kinase)	2	51.2	active
3	EEF2K (eukaryotic elongation factor 2 kinase)	3	63.5	active
4	TP73 (tumor protein p73)	1	29.3	active
5	TP73 (tumor protein p73)	2	48.8	active
6	TP73 (tumor protein p73)	3	39.6	active
7	USP3 (ubiquitin specific peptidase 3)	1	51.4	active
8	USP3 (ubiquitin specific peptidase 3)	2	40.8	active
9	USP3 (ubiquitin specific peptidase 3)	3	30	active
10	NSD3 (nuclear receptor binding SET domain protein 3)	1	18.6	active
11	NSD3 (nuclear receptor binding SET domain protein 3)	2	20	active
12	NSD3 (nuclear receptor binding SET domain protein 3)	3	14.1	active
13	PHF20 (PHD finger protein 20)	1	30.7	active
14	PHF20 (PHD finger protein 20)	2	34.7	active
15	PHF20 (PHD finger protein 20)	3	32.7	active
16	BUB1 (BUB1 mitotic checkpoint serine/threonine kinase)	1	63.8	active
17	BUB1 (BUB1 mitotic checkpoint serine/threonine kinase)	1	60.5	active
18	BUB1 (BUB1 mitotic checkpoint serine/threonine kinase)	2	52.3	active
19	BUB1 (BUB1 mitotic checkpoint serine/threonine kinase)	2	60.4	active
20	BUB1 (BUB1 mitotic checkpoint serine/threonine kinase)	3	61.4	active
21	BUB1 (BUB1 mitotic checkpoint serine/threonine kinase)	3	52.8	active
22	TOPBP1 (DNA topoisomerase II binding protein 1)	1	44.6	active
23	TOPBP1 (DNA topoisomerase II binding protein 1)	2	57.1	active
24	TOPBP1 (DNA topoisomerase II binding protein 1)	3	54.4	active
25	STK17A (serine/threonine kinase 17a)	1	65.4	active
26	STK17A (serine/threonine kinase 17a)	2	57.3	active
27	STK17A (serine/threonine kinase 17a)	3	63	active
28	NME2 (NME/NM23 nucleoside diphosphate kinase 2)	1	31.7	active
29	NME2 (NME/NM23 nucleoside diphosphate kinase 2)	2	33.7	active
30	NME2 (NME/NM23 nucleoside diphosphate kinase 2)	3	41.9	active
31	PDE7B (phosphodiesterase 7B)	1	53.9	active
32	PDE7B (phosphodiesterase 7B)	2	72.8	active
33	PDE7B (phosphodiesterase 7B)	3	44.6	active
34	NME1-NME2 (NME1-NME2 readthrough)	1	55	active
35	NME1-NME2 (NME1-NME2 readthrough)	2	38	active
36	NME1-NME2 (NME1-NME2 readthrough)	3	45.5	active
37	GTF2H3 (general transcription factor IIH subunit 3)	1	57.7	active
38	GTF2H3 (general transcription factor IIH subunit 3)	2	45.6	active
39	GTF2H3 (general transcription factor IIH subunit 3)	3	41.6	active
